This data set in a line: Steady state radiolysis: drug release after one-electron reduction. Conditions: isopropanol/water 50:50, N2O-saturated, 60Co 3.9 Gy min^−1, released drug by HPLC.

For the molecule `COc1ccc(/C=C\c2cc(OC)c(OC)c(OC)c2)cc1OC(C)(C)c1ccc([N+](=O)[O-])s1` [Example 1], the “Radiation chemical yield G, drug released Combretastatin A4” value is 0.36 µmol/J.
Still for that read-out and setting: the figure for `COc1ccc(/C=C\c2cc(OC)c(OC)c(OC)c2)cc1OC(C)(C)c1ccc([N+](=O)[O-])cc1` [Example 2] is 0.16 µmol/J.
`CC(C)(Sc1ncnc2[nH]cnc12)c1ccc([N+](=O)[O-])cc1` [Example 4, 6-(2-(4-nitrophenyl)propan-2-ylsulfanyl)-9H-purine]: the “Radiation chemical yield G, drug released 6-Mercaptopurine” value stood at 0.44 µmol/J.
For `COc1ccc(/C=C\c2cc(OC)c(OC)c(OC)c2)cc1OC(=O)OC1(c2ccc([N+](=O)[O-])s2)CCN(C)CC1` [Example 5, 1-(4-Methoxy-3-(1-methyl-4-(5-nitrothien-2-yl)piperidin-4-yl)oxycarbonyloxy)phenyl-2-(3,4,5-trimethoxy)phenyl-Z-ethene], the “Radiation chemical yield G, drug released Combretastatin A4” value worked out at 0.46 µmol/J.
`COc1ccc(/C=C\c2cc(OC)c(OC)c(OC)c2)cc1OC(C)(C)c1cnc([N+](=O)[O-])n1C` [Example 6]: the “Radiation chemical yield G, drug released Combretastatin A4” value was found to be 0.07 µmol/J.
With `CC(C)(OC(=O)Nc1ccn([C@@H]2O[C@H](CO)[C@@H](O)[C@@H]2O)c(=O)n1)c1ccc([N+](=O)[O-])s1` [Example 8, N^4-(2-(5-nitrothien-2-yl)prop-2-yl)oxycarbonyl-1-β-D-arabiuofuranosylcytosine], the “Radiation chemical yield G, drug released Cytarabine” value was determined as 0.38 µmol/J.
Take `CCOC(=O)C(C)(Oc1cc(/C=C\c2cc(OC)c(OC)c(OC)c2)ccc1OC)c1ccc([N+](=O)[O-])s1` (stereo not shown) [Example 9, 1-(3-(1-Ethoxycarbonyl-1-(5-nitrothien-2-yl)ethoxy)-4-methoxy-phenyl)-2-(3,4,5-trimethoxyphenyl)-Z-ethene]: the “Radiation chemical yield G, drug released Combretastatin A4” value amounted to 0.50 µmol/J.

Values taken from patent US20070099871A1, “Bioreductively-activated prodrugs” (ANGIOGENE PHARMACEUTICALS LIMITED, priority 2003, published 2007).
